Drawing on publication doi:10.1101/2025.11.10.687720, “Magnetosome organelles are organized through interactions between McaA and McaB that alter the dynamics of the bacterial actin-like protein MamK” (bioRxiv, 2025), this text covers binding for two molecules.

These are yes or no findings as the source states them, for the method shown. In cells and extracts the contact can be indirect. A result given as binding can be weak or reduced; the word gives no strength. Where a sequence is shown, tags or fusion partners need not be part of it.

Common to all, as to test: co-IP; GFP-tagged bait in AMB-1 lysate (NP-40 lysis) on GFP-Trap agarose beads, 1 hr at 4°C, washed with 10 mM Tris-HCl, 150 mM NaCl, pH 7.4; Western blot of the elution; strains ΔmcaAB, ΔmamKΔmcaA, ΔMAIΔMIS, WT, ΔmcaA, ΔmcaBΔmamK, ΔmamKΔmamK-like, Δmms6; biomineralization conditions
Background: Immunoblotting shows a protein as a band on a membrane.

Test [1] addresses McaA-GFP (Magnetospirillum magneticum AMB-1).
Test [2] addresses McaAΔ530-GFP (Magnetospirillum magneticum AMB-1).
The target in test [3] is McaB-GFP (Magnetospirillum magneticum AMB-1).

B1: MamK-Flag (protein, UniProt Q2W8Q6 1-347)
chain: MSEGEGQAKNRLFLGIDLGTSHTAVMSSRGKKFLLKSVVGYPKDVIGLKLLGRPYVVGDEAFEMRSYLDIRYPLQDGVLSEISDRDIEVARHLLTHVVKSAEPGPNDEICAVIGVPARASAANKALLLKMAQEVVHTALVVSEPFMVGYGLDKLINTIIVDIGAGTTDICALKGTVPGPEDQVTLTKAGNYVDERLQNAILERHPELQMNVNVACAVKEQFSFVGTPTEVASFEFRAAGKPVRADVTEPVKIACEALMPDIIESIETLLRSFQPEYQATVLQNIVFAGGGSRIRGLAAYVKEKLRPFGDANVTCVKDPTFDGCRGALRLAEELPPQYWRQLGDVSGS
Regarding B1, the binding entry in test [1], in test [2] and in test [3] was “binds” in each case.

B2: Mms6-Halo (protein, UniProt Q2W8R5 1-133)
chain: MGEMEREGAAAKAGAAKTGAAKTGTVAKTGIAAKTGVATAVAAPAAPANVAAAQGAGTKVALGAGKAAAGAKVVGGTIWTGKGLGLGLGLGLGAWGPIILGVVGAGAVYAYMKSRDIESAQSDEEVELRDALA
With B2, in test [3], the binding entry is on record as “no binding”.
